# Results from one PubChem assay

The results are deposited in PubChem (AID1053133; Broad Institute, 2014).

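Vaccinia-infected cells with a two-color viral stage reporter; Venus fluorescence read on a plate reader; the cell line is not named here; timing not stated here. The test concentration is not given here. Percent change in Venus reporter signal; lower (more negative) values mean stronger inhibition of that viral stage.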

Values are in %. How 0% and 100% were set is not given here. Common to all entries: measured here: Venus reporter, other viral stage. This is a side read-out of the assay, for part of the compounds, not drawn at random.

Result for C[C@@H]1CCCCO[C@@H](CN(C)Cc2ccc(C(F)(F)F)cc2)[C@H](C)CN([C@H](C)CO)C(=O)c2cc(NC(=O)CCC(F)(F)F)ccc2O1 was activity change (Venus) -55.02%. COc1ccccc1CN1C[C@@H]2N[C@H](C1)C2c1ccc(-c2ccccc2)cc1 (stereo not given in full) gave activity change (Venus) -32.69%. For C[C@@H]1CN([C@H](C)CO)C(=O)c2cc(C#CC3CCCCC3)cnc2O[C@@H]1CN(C)C(=O)NC1CCCC1 the result was activity change (Venus) -35.68%. C[C@@H]1CCCCO[C@@H](CN(C)Cc2ccc(Cl)c(Cl)c2)[C@H](C)CN([C@@H](C)CO)C(=O)c2cc(N(C)C)ccc2O1 read activity change (Venus) -35%. COc1ccc(S(=O)(=O)Nc2ccc3c(c2)CC(=O)N([C@@H](C)CO)C[C@@H](C)[C@H](CN(C)Cc2ccc(C(F)(F)F)cc2)O3)cc1 gave activity change (Venus) -59.93%. Result for C[C@H]1CCCCO[C@H](CN(C)Cc2ccc3c(c2)OCO3)[C@@H](C)CN([C@@H](C)CO)C(=O)c2cc(NS(=O)(=O)c3ccccc3)ccc2O1 was activity change (Venus) -39.9%.

CC(C)CC#Cc1ccc([C@H]2[C@H](CO)N3C(=O)CN(S(=O)(=O)c4ccccc4)C[C@@H]23)cc1 read activity change (Venus) -30.15%. For CC(=O)N1CCCCN2[C@H](C1)[C@H](c1ccc(-c3ccc(C)cc3)cc1)[C@@H]2CO the result was activity change (Venus) -65.83%. Result for C[C@@H]1CN([C@@H](C)CO)C(=O)c2cc(NS(=O)(=O)c3ccc(Cl)cc3)ccc2O[C@@H](C)CCCCO[C@H]1CN(C)Cc1ccc(C(F)(F)F)cc1 was activity change (Venus) -67.13%. Result for COc1ccc(NC(=O)Nc2ccc3c(c2)C(=O)N([C@@H](C)CO)C[C@@H](C)[C@@H](CN(C)Cc2ccc4c(c2)OCO4)O3)cc1 was activity change (Venus) -23.57%. For COc1ccc(S(=O)(=O)Nc2ccc3c(c2)C(=O)N([C@H](C)CO)C[C@@H](C)[C@@H](CN(C)C(=O)CCC(F)(F)F)OCCCC[C@@H](C)O3)cc1 the result was activity change (Venus) -20.02%. With Cc1ccc(S(=O)(=O)N(C)C[C@H]2OCCCC[C@H](C)Oc3ccc(NS(=O)(=O)c4c(C)noc4C)cc3C(=O)N([C@H](C)CO)C[C@H]2C)cc1 the assay gave activity change (Venus) -18.91%.

CC(C)CC#Cc1ccc2c(c1)O[C@@H](CN(C)C(=O)c1ccncc1)[C@@H](C)CN([C@@H](C)CO)S2(=O)=O read activity change (Venus) -36.25%. With COc1ccc(S(=O)(=O)N(C)C[C@H]2OCCCC[C@H](C)Oc3ccc(NS(=O)(=O)c4ccccc4)cc3C(=O)N([C@H](C)CO)C[C@@H]2C)cc1 the assay gave activity change (Venus) -25.38%. With COc1ccc(C#Cc2cnc3c(c2)C(=O)N([C@H](C)CO)C[C@@H](C)[C@@H](CN(C)CC2CCCC2)O3)cc1 the assay gave activity change (Venus) -35.58%. With Cc1noc(C)c1NC(=O)Nc1ccc2c(c1)C(=O)N([C@@H](C)CO)C[C@@H](C)[C@@H](CN(C)Cc1ccc(Cl)c(Cl)c1)OCCCC[C@@H](C)O2 the assay gave activity change (Venus) -50.71%. Result for COc1ccc2c3c([nH]c2c1)[C@H](CO)N(S(=O)(=O)c1ccccc1)CC31CCN(C)CC1 was activity change (Venus) -68.43%. C[C@@H]1CN([C@H](C)CO)C(=O)c2c(c3ccccc3n2C)-c2ccccc2CO[C@@H]1CN(C)S(=O)(=O)c1ccccc1 read activity change (Venus) -33.24%.

C[C@@H]1CN([C@@H](C)CO)C(=O)c2cccc(NS(=O)(=O)c3ccc(F)cc3)c2O[C@@H]1CN(C)Cc1ccc(-c2ccccc2)cc1 read activity change (Venus) -40.8%. COc1ccc(CN(C)C[C@H]2OCCCC[C@H](C)Oc3ccc(NS(=O)(=O)c4ccc(OC)cc4)cc3C(=O)N([C@@H](C)CO)C[C@H]2C)cc1 read activity change (Venus) -39.43%. For CC(=O)N(C)C[C@@H]1Oc2cc(C#CCC3CCCC3)ccc2S(=O)(=O)N([C@H](C)CO)C[C@@H]1C the result was activity change (Venus) -44.38%. With CC(C)CC#Cc1ccc2c(c1)O[C@H](CN(C)C(=O)c1cccc(F)c1)[C@H](C)CN([C@@H](C)CO)S2(=O)=O the assay gave activity change (Venus) -57.74%. C[C@@H]1CN([C@H](C)CO)S(=O)(=O)c2ccc(C#Cc3ccccc3F)cc2O[C@@H]1CN(C)C(=O)c1ccc2c(c1)OCO2 read activity change (Venus) -41.43%. With Cc1ccc(S(=O)(=O)N(C)C[C@H]2Oc3c(NC(=O)Nc4ccc(C(F)(F)F)cc4)cccc3C(=O)N([C@@H](C)CO)C[C@@H]2C)cc1 the assay gave activity change (Venus) -25.98%.

For CN1c2ccc(-c3cccc(C#N)c3)cc2[C@@H]2[C@@H](CCN2C(=O)NC2CCCC2)[C@@H]1CO the result was activity change (Venus) -30.2%. Cc1ccc(OC(=O)N(C)C[C@@H]2OCc3ccccc3-c3c(n(C)c4ccccc34)C(=O)N([C@@H](C)CO)C[C@H]2C)cc1 gave activity change (Venus) -73.16%. For O=C([C@@H]1N[C@@H]2c3ccc(C4=CCCCC4)c(=O)n3C[C@@H]2[C@H]1CO)N1CCC(Cc2ccccc2)CC1 the result was activity change (Venus) -40.16%. CC(C)NC(=O)Nc1ccc2c(c1)C(=O)N([C@@H](C)CO)C[C@H](C)[C@H](CN(C)S(=O)(=O)c1ccc(Cl)cc1)OCCCC[C@H](C)O2 gave activity change (Venus) -30.81%. Result for C[C@H](CO)N1C[C@H](C)[C@H](CN(C)Cc2ccc3c(c2)OCO3)OCCCC[C@H](C)Oc2ccc(NC(=O)NC3CCCCC3)cc2C1=O was activity change (Venus) -53.36%. CCOC(=O)c1ccc(NC(=O)O[C@H]2[C@H](OC(=O)Nc3ccccc3)[C@@H](OC(=O)Nc3ccccc3)[C@@H](OC)O[C@@H]2CO)cc1 gave activity change (Venus) -50.96%.

With COc1cccc(S(=O)(=O)N2CCCCN3[C@@H](CO)[C@@H](c4ccc(C#CCC(C)C)cc4)[C@@H]3C2)c1 the assay gave activity change (Venus) -46.61%. C[C@@H]1CCCCO[C@@H](CN(C)Cc2ccc(Cl)c(Cl)c2)[C@@H](C)CN([C@@H](C)CO)C(=O)c2cc(NS(=O)(=O)c3ccc(Cl)cc3)ccc2O1 gave activity change (Venus) -34.78%. Result for C[C@@H]1CN([C@@H](C)CO)S(=O)(=O)c2ccc(C#Cc3cccnc3)cc2O[C@H]1CN(C)CC1CCOCC1 was activity change (Venus) -23.71%. For C[C@H]1CCCCO[C@H](CN(C)CC2CCCCC2)[C@@H](C)CN([C@@H](C)CO)C(=O)c2cc(NC(=O)C3CCCCC3)ccc2O1 the result was activity change (Venus) -48.82%. With COc1ccc(S(=O)(=O)Nc2ccc3c(c2)C(=O)N([C@@H](C)CO)C[C@H](C)[C@@H](CN(C)Cc2ccc4c(c2)OCO4)OCCCC[C@@H](C)O3)cc1 the assay gave activity change (Venus) -61.87%.

4 of the entries, repeated:

- COc1ccc(NC(=O)Nc2ccc3c(c2)C(=O)N([C@@H](C)CO)C[C@@H](C)[C@@H](CN(C)Cc2ccc4c(c2)OCO4)O3)cc1 | activity change (Venus) -23.57%
- C[C@H]1CCCCO[C@H](CN(C)CC2CCCCC2)[C@@H](C)CN([C@@H](C)CO)C(=O)c2cc(NC(=O)C3CCCCC3)ccc2O1 | activity change (Venus) -48.82%
- COc1ccc(S(=O)(=O)Nc2ccc3c(c2)C(=O)N([C@H](C)CO)C[C@@H](C)[C@@H](CN(C)C(=O)CCC(F)(F)F)OCCCC[C@@H](C)O3)cc1 | activity change (Venus) -20.02%
- CC(C)CC#Cc1ccc2c(c1)O[C@H](CN(C)C(=O)c1cccc(F)c1)[C@H](C)CN([C@@H](C)CO)S2(=O)=O | activity change (Venus) -57.74%